Data reported in the RepoRT retention time repository.

Experiment: HILIC, Merck SeQuant ZIC-HILIC, 25 °C, 0.25 mL/min; A: water + 16 mM ammonium formate; B: acetonitrile + 0.1% formic acid, pH 3; gradient (min/%B) 0/97 2/97 10/70 15/10 17/10 18/97 25/97
Conditions: stereoisomer not certain

Row | SMILES | LC retention time
1 | O=C(O)C(=O)Cc1ccc(O)cc1 [3-(4-HYDROXYPHENYL)PYRUVATE-C2H2O2] | 1.77 min
2 | O=C(O)C1=CC(=O)C(O)C(O)C1 (configuration not stated) [3-DEHYDROSHIKIMATE] | 9.21 min
